Test results as given in patent US8580836B2, “Plant disease control composition and method of controlling plant disease” (Sumitomo Chemical Company, Limited, priority 2010, dated 2013).
Some results were stated once for a whole list of compounds, not compound by compound.

Experiments:
Assay type in all cases: in vivo
[1] = system: Mycosphaerella graminicola (Septoria tritici); assay: Test of effect of preventing Mycosphaerella graminicola (Septoria tritici) on wheat, foliar spray; conditions: 13 ppm foliar spray; wheat (Apogee); inoculated two days after spraying
Procedure: The control effect was evaluated by visually observing the area of a lesion on a test plant in investigation, and comparing the area of a lesion on a plant treated with a test composition and the area of a lesion on a non-treated plant.
Test of Effect of Preventing Mycosphaerella graminicola (Septoria tritici)
A plastic pot was stuffed with a soil, wheat (variety; Apogee) was sown on this, and allowed to grow in a greenhouse for 10 days. […] After spraying, the plant was air-dried, and two days after, inoculated with an aqueous suspension of Septoria tritici spores by spraying. After inoculation, the plant was first allowed to stand under humid condition at 18° C. for 3 days, further, allowed to stand for 14 to 18 days under illumination, then, the lesion area was checked. As a result, the lesion on the plant treated with the present carboxamide compounds (1), (2) and (3) was 10% or less of the lesion area on a non-treated plant.
The same test was carried out excepting the application concentration, using racemic N-(1,1,3-trimethylindan-4-yl)-1-methyl-3-trifluoromethylpyrazole-4-carboxylic amide (hereinafter, referred to as racemic compound (A)) instead of the present carboxamide compound. As a result, the lesion area on the plant treated with 50 ppm of the racemic compound (A) was 75% or more of the lesion area on a non-treated plant.

Puccinia triticina = assay: Test of effect of preventing Puccinia triticina on wheat, foliar spray; conditions: 200 ppm foliar spray; wheat (Shirogane); inoculated five days after spraying
Pyrenophora teres = assay: Test of effect of preventing Pyrenophora teres on barley, foliar spray; conditions: 200 ppm foliar spray; barley (Nishinohoshi); inoculated five days after spraying

Measured: lesion area on treated plant relative to lesion area on a non-treated plant

C[C@@H]1CC(C)(C)c2cccc(NC(=O)c3cn(C)nc3C(F)F)c21 [present carboxamide compound (2), (R)-(−)-N-(1,1,3-trimethylindan-4-yl)-1-methyl-3-difluoromethylpyrazole-4-carboxamide]
≤ 10%: all assays above
